# Laboratory results reported in US20250179200A1 (UNIVERSITY OF CHICAGO, published 2025).
# Amino acid sequences for entries named in this document (tags omitted). A change or cut given only in a name is not applied to a line headed by its entry. Chains listed by the source or under a name are the forms on record and can include a tag or linker. Residues count along the entry.
# Growth Hormone Receptor (GHR) immobilized on a high binding plate (P10912, residues 19-264): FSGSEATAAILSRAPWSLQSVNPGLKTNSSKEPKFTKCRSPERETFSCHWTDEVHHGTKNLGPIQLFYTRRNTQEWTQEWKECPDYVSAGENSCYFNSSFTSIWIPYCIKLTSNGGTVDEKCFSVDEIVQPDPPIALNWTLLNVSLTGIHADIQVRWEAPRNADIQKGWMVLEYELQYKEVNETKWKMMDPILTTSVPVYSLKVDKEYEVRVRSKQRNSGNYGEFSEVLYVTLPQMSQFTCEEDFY
# GHR-Fc-10× His (human) (P10912, form named): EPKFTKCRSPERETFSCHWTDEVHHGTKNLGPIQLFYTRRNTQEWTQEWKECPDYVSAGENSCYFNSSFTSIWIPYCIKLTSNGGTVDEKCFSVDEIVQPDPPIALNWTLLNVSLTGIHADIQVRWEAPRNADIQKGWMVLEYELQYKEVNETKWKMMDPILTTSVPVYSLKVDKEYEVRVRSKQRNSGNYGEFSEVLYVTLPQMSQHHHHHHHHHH
# Results are given in words; binding and its absence hold for the method and conditions named. Some binding calls cover weakened binding; strength is not graded here. For some assays here: Where a sequence is shown, tags or fusion partners need not be part of it.
# T1: Pig GHR_Fc with 10× His-tag (pig) (UniProt P19756)
# T1 sequence (chain (part 1 of 2)): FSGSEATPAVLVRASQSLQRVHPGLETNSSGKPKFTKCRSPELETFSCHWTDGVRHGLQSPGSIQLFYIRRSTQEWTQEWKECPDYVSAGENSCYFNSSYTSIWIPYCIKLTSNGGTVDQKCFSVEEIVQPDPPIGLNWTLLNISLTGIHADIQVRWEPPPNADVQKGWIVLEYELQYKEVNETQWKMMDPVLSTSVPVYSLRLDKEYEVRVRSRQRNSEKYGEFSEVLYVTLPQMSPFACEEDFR
# T1 sequence (chain (part 2 of 2)): HHHHHHHHHH
# T2: Murine GHR_Fc with 10× His-tag (murine) (UniProt P16882)
# T2 sequence (chain (part 1 of 2)): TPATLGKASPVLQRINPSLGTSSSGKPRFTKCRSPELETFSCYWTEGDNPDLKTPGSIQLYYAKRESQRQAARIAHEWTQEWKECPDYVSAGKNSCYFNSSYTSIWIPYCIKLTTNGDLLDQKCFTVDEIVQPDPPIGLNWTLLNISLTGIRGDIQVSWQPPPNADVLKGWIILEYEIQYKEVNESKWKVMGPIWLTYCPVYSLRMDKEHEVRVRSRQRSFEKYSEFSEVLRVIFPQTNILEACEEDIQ
# T2 sequence (chain (part 2 of 2)): HHHHHHHHHH
# T3: Rabbit GHR_Fc with 10× His-tag (rabbit) (UniProt P19941)
# T3 sequence (chain (part 1 of 2)): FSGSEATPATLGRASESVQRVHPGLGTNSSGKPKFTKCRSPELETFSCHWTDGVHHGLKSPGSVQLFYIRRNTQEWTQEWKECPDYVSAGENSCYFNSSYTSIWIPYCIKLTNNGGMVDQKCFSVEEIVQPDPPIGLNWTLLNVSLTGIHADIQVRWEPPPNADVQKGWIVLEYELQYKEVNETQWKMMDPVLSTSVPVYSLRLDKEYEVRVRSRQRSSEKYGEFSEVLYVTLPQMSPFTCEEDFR
# T3 sequence (chain (part 2 of 2)): HHHHHHHHHH
# T4: Rat GHR_Fc with 10× His-tag (rat) (UniProt P16310)
# T4 sequence (chain (part 1 of 2)): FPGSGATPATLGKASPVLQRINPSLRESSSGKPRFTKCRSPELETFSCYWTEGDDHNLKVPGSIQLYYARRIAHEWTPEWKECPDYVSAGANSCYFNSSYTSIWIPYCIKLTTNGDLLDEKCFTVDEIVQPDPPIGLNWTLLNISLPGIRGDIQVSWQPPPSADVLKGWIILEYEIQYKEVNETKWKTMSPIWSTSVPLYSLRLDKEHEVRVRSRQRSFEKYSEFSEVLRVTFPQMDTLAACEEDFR
# T4 sequence (chain (part 2 of 2)): HHHHHHHHHH
# Experiments:
# [1] = molecular target: GHR-Fc-10× His (human) (human) (UniProt P10912); test: SPR (FIG. 12A)
# [2] = molecular target: GHR-Fc-10× His (human) (human) (UniProt P10912); test: SPR, Fab dilution series over human GHR_Fc with 10x His-tag on Ni-NTA chip
# [3] = molecular target: GHR-Fc-10× His (human) (human) (UniProt P10912); test: SPR single injection over human GHR
# [4] = molecular target: GHR-Fc-10× His (human) (human) (UniProt P10912); test: SPR
# [5] = molecular target: Growth Hormone Receptor (GHR) immobilized on a high binding plate (UniProt P10912); test: competition ELISA: Fab titrated on plate-bound GHR preincubated with 200 nM GH, anti-human Fab-HRP
# [6] = molecular target: Growth Hormone Receptor (GHR) immobilized on a high binding plate (UniProt P10912); test: competition ELISA, GHR on the plate preincubated with 200 nM human GH, bound Fab detected
# [7] = molecular target: Growth Hormone Receptor (GHR) immobilized on a high binding plate (UniProt P10912); test: competition ELISA: 200 nM Fab prebound to plate-bound GHR, challenged with GH 1 to 2000 nM, anti-human Fab-HRP
# [8] = molecular target: T1, Pig GHR_Fc with 10× His-tag (pig); test: SPR, Fab in two-fold dilutions from 50 nM
# [9] = molecular target: T2, Murine GHR_Fc with 10× His-tag (murine); test: SPR, Fab in two-fold dilutions from 50 nM
# [10] = molecular target: Cyno GHR_Fc with 10× His-tag (cyno); test: SPR, Fab in two-fold dilutions from 50 nM
# [11] = molecular target: T3, Rabbit GHR_Fc with 10× His-tag (rabbit); test: SPR, Fab in two-fold dilutions from 50 nM
# [12] = molecular target: GHR-Fc-10× His (human) (human) (UniProt P10912); test: SPR, Fab in two-fold dilutions from 50 nM
# [13] = molecular target: T4, Rat GHR_Fc with 10× His-tag (rat); test: SPR, Fab in two-fold dilutions from 50 nM
# [14] = molecular target: T1, Pig GHR_Fc with 10× His-tag (pig); test: SPR, GHR_Fc with 10× His-tag on Ni-NTA chip, Fab as analyte
# [15] = molecular target: T2, Murine GHR_Fc with 10× His-tag (murine); test: as above
# [16] = molecular target: Cyno GHR_Fc with 10× His-tag (cyno); test: as above
# [17] = molecular target: T3, Rabbit GHR_Fc with 10× His-tag (rabbit); test: as above
# [18] = molecular target: T4, Rat GHR_Fc with 10× His-tag (rat); test: as above
# [19] = molecular target: Growth Hormone Receptor (GHR) immobilized on a high binding plate (UniProt P10912); test: competition ELISA: 200 nM Fab prebound to plate-bound GHR, challenged with B2036 up to 1000 nM, anti-human Fab-HRP
binding [1],binding [2],binding [3],binding [4],binding [5],binding [6],binding [7],binding [8],binding [9],binding [10],binding [11],binding [12],binding [13],binding [14],binding [15],binding [16],binding [17],binding [18],binding [19],Binder
binds,binds,binds,binds,–,–,–,–,–,–,–,–,–,–,–,–,–,–,–,"GHR_TS23.1 Fab (Fab, V domains shown) VH: EVQLVESGGGLVQPGGSLRLSCAASGFNFYYSSIHWVRQAPGKGLEWVASIYSYSGSTSYADSVKGRFTISADTSKNTAYLQMNSLRAEDTAVYYCARQDWYYGGYFYYGIDYWGQGTLVTVSS VL: DIQMTQSPSSLSASVGDRVTITCRASQSVSSAVAWYQQKPGKAPKLLIYSASSLYSGVPSRFSGSRSGTDFTLTISSLQPEDFATYYCQQYWSTLITFGQGTKVEIKR"
–,–,binds,–,binds,binds,binds,binds,binds,binds,binds,binds,binds,binds,binds,binds,binds,binds,binds,"GHR_TS23 Fab (Fab, V domains shown) VH: EVQLVESGGGLVQPGGSLRLSCAASGFNFYYSSIHWVRQAPGKGLEWVASIYSYSGSTSYADSVKGRFTISADTSKNTAYLQMNSLRAEDTAVYYCARQYWYYGGYFYYGIDYWGQGTLVTVSS VL: DIQMTQSPSSLSASVGDRVTITCRASQSVSSAVAWYQQKPGKAPKLLIYSASSLYSGVPSRFSGSRSGTDFTLTISSLQPEDFATYYCQQYWSTLITFGQGTKVEIKR"
